These are yes or no findings as the source states them, for the method shown. Some binding calls cover weakened binding; strength is not graded here. For some of these results: Where a sequence is shown, tags or fusion partners need not be part of it.

The chains behind the UniProt entries cited, without tags or fusion partners.
UniProt P0AAI3: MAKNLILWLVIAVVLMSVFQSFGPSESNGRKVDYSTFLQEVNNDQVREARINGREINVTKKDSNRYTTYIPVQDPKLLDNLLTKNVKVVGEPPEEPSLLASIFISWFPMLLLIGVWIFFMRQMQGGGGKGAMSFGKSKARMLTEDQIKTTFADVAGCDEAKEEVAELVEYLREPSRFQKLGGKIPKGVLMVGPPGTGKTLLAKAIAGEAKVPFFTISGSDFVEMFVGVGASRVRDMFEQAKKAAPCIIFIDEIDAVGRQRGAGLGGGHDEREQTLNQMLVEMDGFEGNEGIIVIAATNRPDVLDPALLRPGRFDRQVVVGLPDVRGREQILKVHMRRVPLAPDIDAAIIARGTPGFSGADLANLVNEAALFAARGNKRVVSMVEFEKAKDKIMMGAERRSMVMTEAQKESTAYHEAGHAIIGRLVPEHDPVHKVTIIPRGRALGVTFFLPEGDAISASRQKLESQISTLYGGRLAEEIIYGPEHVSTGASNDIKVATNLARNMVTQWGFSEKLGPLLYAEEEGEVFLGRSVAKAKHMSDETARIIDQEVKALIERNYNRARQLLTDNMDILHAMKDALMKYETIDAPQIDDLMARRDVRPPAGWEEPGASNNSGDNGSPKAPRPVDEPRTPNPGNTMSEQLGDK

For experiment [1], the target named is CIII R27A (bacteriophage lambda) (UniProt P03044). The experiment is described as follows: electrophoresis; oligomers of CIII mutants and wild type CIII seen by electrophoresis; data not shown.
Experiment [2] deals with CIII R32A (bacteriophage lambda) (UniProt P03044). The description is as above.
Experiment [3] has as its target GST-FtsH (E. coli) (UniProt P0AAI3). The experiment is described as follows: cross-linking; 4 µM CII, 1 µM GST-FtsH, CIII in different concentrations, 0.1 mg/ml BSA in PBS, with or without 10 mM AMP-PNP (no nucleotide dependence), 5 minutes at 42°C, then 0.25% glutaraldehyde 2 minutes, stopped by 200 mM glycine; western blot with antibodies against CII; both purified. Background: In western blotting, separated proteins are transferred to a membrane and probed.

In experiment [4] the target is T1, His6-CIII (bacteriophage lambda CIII) (bacteriophage lambda), P03044.
T1 chain: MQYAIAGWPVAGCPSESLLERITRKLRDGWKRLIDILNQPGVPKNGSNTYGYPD
The experiment is described as follows: electrophoresis; oligomers of CIII mutants and wild type CIII seen by electrophoresis; data not shown. Particulars: remark: other sources report otherwise.

Experiment [5] addresses T1, His6-CIII (bacteriophage lambda CIII) …. The experiment is described as follows: SDS electrophoresis with western blot; different concentrations of purified His6-CIII on 4-12% NuPAGE, western blot with antibodies against the His6 tag; oligomers partially resist SDS; both purified. Conditions: remark: other sources report otherwise.
Experiment [6] deals with T2, CIII made in cells following λ infection (bacteriophage lambda), P03044.
T2 chain: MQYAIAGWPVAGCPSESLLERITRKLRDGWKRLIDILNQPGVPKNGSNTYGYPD
The experiment is described as follows: electrophoresis; electrophoresis of cells following λ infection; data not shown. Particulars: remark: other sources report otherwise.

In the case of CIII R27A (from UniProt P03044 1-54), the binding result in experiment [1] is “binds”.
As for CIII R32A (from UniProt P03044 1-54), the binding entry in experiment [2] was “binds”.

B1: CII (bacteriophage lambda CII transcriptional activator) (protein, UniProt P03042 1-97)
chain: MVRANKRNEALRIESALLNKIAMLGTEKTAEAVGVDKSQISRWKRDWIPKFSMLLAVLEWGVVDDDMARLARQVAAILTNKKRPAATERSEQIQMEF
As to B1, the binding result in experiment [3] is given as “binds”.

B2: His6-CIII (bacteriophage lambda CIII), P03044 1-54 (natural protein)
chain: MQYAIAGWPVAGCPSESLLERITRKLRDGWKRLIDILNQPGVPKNGSNTYGYPD
For the molecule B2, the binding entry in experiment [4] and in experiment [5] was “binds” each time.

B3: CIII made in cells following λ infection, P03044 1-54 (protein)
chain: MQYAIAGWPVAGCPSESLLERITRKLRDGWKRLIDILNQPGVPKNGSNTYGYPD
As for B3, the binding entry in experiment [6] is recorded as “binds”.

B4: His6-CIII (bacteriophage lambda CIII) (protein, UniProt P03044 1-54)
chain: MQYAIAGWPVAGCPSESLLERITRKLRDGWKRLIDILNQPGVPKNGSNTYGYPD
As to B4, the binding entry in experiment [3] is recorded as “binds”.

Source of the values: publication PMC1838920.
